No constants are given. Whether binding was seen depends on the method and setting. In cells and extracts the contact can be indirect. Some entries that bind do so weakly or less than the wild type.
T1: BRCA2 and MEILB2-associated protein1 (BRME1) (mouse (endogenous in testis)) (UniProt Q6DIA7)
T1 sequence: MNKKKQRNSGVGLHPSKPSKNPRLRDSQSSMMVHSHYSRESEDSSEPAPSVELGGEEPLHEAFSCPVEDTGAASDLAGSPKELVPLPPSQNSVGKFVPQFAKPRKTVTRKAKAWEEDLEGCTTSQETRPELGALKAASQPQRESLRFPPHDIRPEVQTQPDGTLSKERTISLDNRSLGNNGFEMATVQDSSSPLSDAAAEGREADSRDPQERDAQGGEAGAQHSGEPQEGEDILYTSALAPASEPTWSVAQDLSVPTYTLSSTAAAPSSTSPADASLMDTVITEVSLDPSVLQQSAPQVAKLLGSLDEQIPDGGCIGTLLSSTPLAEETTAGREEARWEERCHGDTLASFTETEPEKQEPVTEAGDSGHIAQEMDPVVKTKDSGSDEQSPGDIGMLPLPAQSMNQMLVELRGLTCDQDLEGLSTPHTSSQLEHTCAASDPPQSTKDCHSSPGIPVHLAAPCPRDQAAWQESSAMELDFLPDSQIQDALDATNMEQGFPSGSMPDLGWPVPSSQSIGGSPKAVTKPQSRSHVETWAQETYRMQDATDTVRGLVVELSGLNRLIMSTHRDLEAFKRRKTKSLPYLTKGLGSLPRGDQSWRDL

T2: BRCA2 and MEILB2-associated protein1 (BRME1) (mouse (endogenous in testis)), Q6DIA7
T2 chain: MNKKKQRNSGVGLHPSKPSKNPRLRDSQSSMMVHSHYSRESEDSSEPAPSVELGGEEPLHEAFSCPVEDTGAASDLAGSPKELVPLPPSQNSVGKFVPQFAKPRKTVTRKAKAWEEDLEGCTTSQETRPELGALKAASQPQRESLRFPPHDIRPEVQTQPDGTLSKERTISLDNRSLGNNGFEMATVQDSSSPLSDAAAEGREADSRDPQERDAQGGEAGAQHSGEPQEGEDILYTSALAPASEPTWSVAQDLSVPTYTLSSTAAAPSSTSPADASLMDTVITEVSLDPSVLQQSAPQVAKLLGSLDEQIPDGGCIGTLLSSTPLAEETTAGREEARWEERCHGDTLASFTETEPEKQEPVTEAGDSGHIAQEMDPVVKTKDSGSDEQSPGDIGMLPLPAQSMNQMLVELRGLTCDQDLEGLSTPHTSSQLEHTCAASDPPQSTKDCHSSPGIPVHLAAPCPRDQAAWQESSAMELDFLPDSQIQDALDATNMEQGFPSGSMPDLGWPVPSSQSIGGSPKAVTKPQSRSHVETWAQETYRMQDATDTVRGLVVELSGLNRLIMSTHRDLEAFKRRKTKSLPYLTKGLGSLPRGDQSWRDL


How the values were obtained:
[1] = target: T1, BRCA2 and MEILB2-associated protein1 (BRME1) (mouse (endogenous in testis)); assay: co-IP
[2] = target: T2, BRCA2 and MEILB2-associated protein1 …; assay: co-IP; conditions: remark: other sources report otherwise

binding [1] | binding [2] | Binder
binds | – | MEILB2/HSF2BP (protein, UniProt Q9D4G2 1-338) MAATVGDGSGTEEACRNMESKEEFVKVRKKDLERLTTEVMQIRDFLPRILNGELLESFQKLKMVEKNLERKEQELEQLIMDREHFKARLETAQADSGREKKEKLALRQQLNEAKQQLLQQAEYCTQMGAVTCTLLWGVSSSEEVVKTILGGDKALKFFNITGQTMESFVKSLDGDVKEVDSDENQFVFALAGIVTNVAAIACGREFLVNSSRVLLDTMLQLLGDLKPGQCTKLKVLMLMSLYNVSINSKGLKYITESPGFIPLLWWLLSDPDAEVCLHTLRLIQSVVLEPDVFSKVASELQSSLPLQRILAMSKSRNSHLQSAAQELLEDLRALDCNV
– | binds | MEIOB, Q9D513 1-470 (protein) MAKFFALKNFTALSDLHPNMANLKIIGIVIGKTDVKGFPDRKNIGSERYTFSFTIRDSPCHFVNVSSWGSEDYIRSLSESFRVAECVIIENPLIQRKDTEREEKFSPATPSNYKLLLSENHSMVKVCSPYEVDTKLLSLIHLPVKESRDYYSLADIVANGHSLDGRIINVLAAVRSVGEPKYFTTSDRRKGQRCEVKLFDETEPSFTMTCWDNESILLAQSWMARETVIFASDVRINFNKFQNCMAATVISKTIITVNPDTPEANILLNYIRENKETNVADEIDSYLKESVNLNTIVDVYTVEQLKVKALKSEGKADPFYGILYAYISTLNIDDETTKVVRNRCSSCGYIVNEASNTCTICNQDSSRLKSFFLSFDVLVDLTDHTGTLHSCSLSGSIAEETLGCTINEFLTMTSEQKTKLKWQLLLERSKIYLKLILSHRARGGLKVTILSCKLADPTEASRNLARQGHT
– | binds | RPA1, Q8VEE4 1-623 (protein) MVGHLSEGAIEVMIQQENTSIKPILQVINIRPISTGNRSPRYRLLMSDGLNTLSSFMLATQLNTLVEGGQLASNCVCQVHKFIVNTLKDGRKVVVLMDLEVMKSAEDVGLKIGNPVPYNEGYGQQQQQQQQQQQQAVPSPASAATPPASKPQPQNGSLGMGSTAAKAYGASKPFGKPAGTGLLQPSGGTQSKVVPIASLTPYQSKWTICARVTNKSQIRTWSNSRGEGKLFSLELVDESGEIRATAFNEQVDKFFPLIEVNKVYYFSKGALKIANKQFSAVKNDYEMTFNNETSVLPCEDGHHLPTVQFDFTGIGDLESKAKDALVDIIGICKSYEDSIKITVKSNNREVAKRNIYLMDMSGKVVTTTLWGEDADKFDGSRQPVMAIKGARVSDFGGRSLSVLSSSTVIVNPDIPEAYKLRGWFDSEGQALDGVSISDHRSGGAGGGNTNWKTLHEAKSENLGQGDKADYFSTVAAVVFLRKENCMYQACPTQDCNKKVIDQQNGLYRCEKCDREFPNFKYRMILSANIADFQENQWVTCFQESAEAILGQNTMYLGELKEKNEQAFEEVFQNANFRSFTFRIRVKLETYNDESRIKATVMDVKPVDFRDYGRRLIANIRKNM

— paper doi:10.1101/2020.02.14.950204
